In PubChem BioAssay AID438 (Columbia University Molecular Screening Center, 2006):
Some of the results follow. Some results for these compounds are left out of this collection, so the calls shown say nothing about other tests.

Assay: inhibitors of TNFa-induced NFkB p65 translocation, primary screen, imaging, HUVEC, MLSMR starter and 10KST1 sets (AID 438);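 further: compound added about 3h40 before a 20 min TNFalpha stimulation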
Settings: HUVEC TNFa-induced p65 nuclear translocation, measured here: nuclei count (cytotoxicity indicator), at 2.08 µM

Row | SMILES | cell count
1 | O=C(OC1CN2CCC1CC2)C(CO)(c1ccccc1)c1ccccc1 (stereo unspecified) | 603
